{"sequences": {"note": "The chains behind the UniProt entries cited, without tags or fusion partners.", "UniProt P38532": "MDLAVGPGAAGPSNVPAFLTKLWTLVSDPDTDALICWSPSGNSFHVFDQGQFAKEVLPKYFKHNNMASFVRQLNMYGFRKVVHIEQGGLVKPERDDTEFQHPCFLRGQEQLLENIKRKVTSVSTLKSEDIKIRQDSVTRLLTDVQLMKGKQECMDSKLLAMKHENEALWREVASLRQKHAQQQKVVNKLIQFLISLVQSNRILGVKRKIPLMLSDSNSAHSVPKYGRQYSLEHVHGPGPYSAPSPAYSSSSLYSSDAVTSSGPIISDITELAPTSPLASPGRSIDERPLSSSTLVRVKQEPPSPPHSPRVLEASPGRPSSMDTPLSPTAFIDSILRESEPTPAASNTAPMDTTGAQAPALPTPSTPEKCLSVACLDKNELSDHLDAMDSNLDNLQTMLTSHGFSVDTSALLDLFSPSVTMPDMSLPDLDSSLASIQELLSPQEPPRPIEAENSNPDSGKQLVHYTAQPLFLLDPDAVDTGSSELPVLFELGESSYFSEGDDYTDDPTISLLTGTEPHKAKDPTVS"}, "source": "paper PMC7948500", "about": "“Comparative interactomes of HSF1 in stress and disease reveal a role for CTCF in HSF1-mediated gene regulation” (The Journal of Biological Chemistry, 2020)", "binders": {"B1": {"name": "structural maintenance of chromosomes protein 6 (protein, UniProt Q924W5 1-1097)", "chain": "MAKRKEENFCSPENAKRPRQEELEDFDKDGDEDECTISFTNGTSTLTAAEVGIIESIQLRNFMCHSMLGPFKFGSNVNFVVGNNGSGKSAVLTALIVGLGGKAVATNRGSSLKGFVKAGQNSADISITLRNRGDDAFRANVYGDSIVVQQHISVDGSRSYKLKSEKGTVVSTRKEELIAILDHFNIQVDNPVSVLTQEMSKQFLQSKNEGDKYKFFMKATQLEQMKEDYSYIMETKERTKEQINQGEERLTELKRQCLEKEERFQNIAGLSTMKTNLEYLKHEMAWAVVNEIEKQLNAIRDNIKIGEERAAKLDRKMEEQQVRLNDAEKKYKDIQDKLEKISEETNARAPECMALKTDVIARTRAFNDAEVLYNRSLNEYKALKKDGEQLCKRIEELKKSTDQSLEPERLERQKRICWLKEKVKALQDQEHTVNQEAEQFEQAIEKDKQEHGRVRKEDIEVRHALNYNQRQLKELKDSKTDRLKRFGPHVPALLEAIDDAYRRRQFTHKPIGPLGACIHLRDPELALAIESCLKGLLQAYCCHNHADERVLQSLMKKFYPPGTSRPQIIVSEFRDEVYDVRLRAAYHPEFPTVLTALEIDNAVVANSLIDMRSIETVLLIKNNSVARAVMQSQKPPKNCREAFTADGDQVFAGRYYSSESTRPKFLSRDVDSEISDLETEIENKKGHIITLQQRLSALEKDIKRNEELLKRCQLHYKEIKMKIRKNISEIRELENIEEHQSVDIATLEDEAEENKIKMQMVEKNMEQQKENMENLKSLKIEAENKYDTIKLKINQLSELADPLKDELNLADSEVDSQKRGKQHYEDKQKEHLDTLNKKRRELDMKEKELQEKMSQARQICPERIEVKKSASILDKEINRLRQKIQAEHASHGDREEIMKQYQEARETYLDLDNKVRTLRRFIKLLEEIMTHRYKTYQQFRRCLTLRCKLYFDNLLSQRAYCGKMNFDHKNETLSITVQPGEGNKASFNDMRALSGGERSFSTVCFILSLWSIAESPFRCLDEFDVYMDMVNRRIAMDMILKMADSQRFRQFILLTPQSMSSLPSSKLIRILRMSDPERGQTTLPFRPVTQEEDDSAS"}, "B2": {"name": "PAR12 (protein, UniProt Q8BZ20 1-711)", "chain": "MAQAAVAVAEVTQLLCAAGGALELAELRRRLRTSLGTDALERLLRDCGRFVVASRAVVAVGAGREAAAAASERLVLAVSSLRLCRAHQGPKPGCTGLCAQLHLCKFLIYGNCKFLKTGKNCRNGHNLKTDHNLSVLRTHGVDHLTYTELCQLLLQNDPSLLPDICLHYNKGDGPFGSCSFQKQCIKLHICQYFLQGECKFGTSCKRSHEFTNSESLEQLERLGLSSDLVSRLLSTYRNAYDIKNKGSALSKVSPSPAGPQGSSERKDSSGPVSPGTPSQEESEQICLYHIRKSCSFQEKCHRVHFHLPYRWQFLDGGKWKDLDNMELIEEAYSNPSKDRIVYTESAAGFHFDNLDFNSMKFGNTLARRLSTASSVTKPPHFILTTDWIWYWMDEFGSWQEYGRQGSGHPVTTISSSDVERAYLAFCAPGADAQAATLKFQAGKHNYELHFKAFLQKNLVYGTIRKVCRRPKYVSPQDVQMKQSCNTKLHGPKSIPDYWDPAALPDLGFKKITLSSSSEEYQKVWNIFNRTLPFYFVQKIERIQNMGLWEVYQWQKCQMQKQNGGKEVDERQLFHGTSANFVDAICQQNFDWRVCGLHGTSYGKGSYFARDAAYSHHYSKSDTHSHMMFLARVLVGDFVRGSTSFVRPPAKEGQSNAFYDSCVNSMSDPTIFVVFEKHQVYPEYLIQYSTSSKPPASPSIFVALGNLFTSRQ"}}, "molecular_target": "heat shock transcription factor 1 (endogenous, mouse striatal cells) (mouse (endogenous in STHdh striatal cells)) (UniProt P38532)", "assay": "affinity purification with mass spectrometry; endogenous untagged HSF1 immunoprecipitated with polyclonal anti-HSF1 covalently linked to DynaG beads from STHdh Q7 (control), Q7 heat shock (42 °C, 30 min) and Q111 (HD) lysates, no cross-linker; IgG IP as control; hits at least twofold over IgG, p < 0.05, ProteinTeller probability >= 0.8; quantitative LC-MS/MS", "note": "These are yes or no findings as the source states them, for the method shown. In cells and extracts the contact can be indirect. Here binding means that the protein was enriched with, or labelled near, the bait; the list need not be complete."}
{"binder": "B1", "values": [{"measurement": "binding", "result": "binds"}]}
{"binder": "B2", "values": [{"measurement": "binding", "result": "binds"}]}
